# Microarray screen: hit calls

From ROBIN, a set of small-molecule microarray screens (doi:10.1002/anie.202211358).

Targets (5′ to 3′):
T1: PreQ1 riboswitch RNA pseudoknot, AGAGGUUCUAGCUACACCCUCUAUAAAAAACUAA. From B. subtilis. Hit rate about 0.7% of about 24,000 compounds.
T2: TPP riboswitch RNA three-way junction, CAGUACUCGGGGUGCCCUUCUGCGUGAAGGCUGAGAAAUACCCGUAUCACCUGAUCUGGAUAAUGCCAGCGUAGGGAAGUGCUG. Hit rate about 0.7% of about 24,000 compounds.
T3: SAM-II riboswitch RNA pseudoknot, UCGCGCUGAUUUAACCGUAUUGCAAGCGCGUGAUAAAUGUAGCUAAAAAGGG. Hit rate about 1% of about 21,000 compounds.

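Each compound is printed as two spots on a slide made to bind it covalently, so it has no test concentration; the read-out is fluorescence of the bound, labelled oligonucleotide. For the PreQ1, TPP and SAM-II riboswitches the laboratory earlier reported (doi:10.1038/s41467-019-09493-3) 1 µM RNA, 2 h, and a rule that included a mean Z-score above 3 (spot signal-to-noise against the whole library), a score well above that on a control array, and duplicate spots agreeing (coefficient of variation under 100). The data file gives only the calls; its cut-offs may differ, and compounds hitting several targets are kept. A missing hit is not proof of no binding, and a hit is not a measured affinity.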 Key: hit = hit, none = tested without a hit. This is an unselected part of the compounds tested. A dash means that no call is listed here.

SMILES,T1,T2,T3
CCOC(=O)COc1c(C)cc(N)cc1C,none,none,none
Cc1ccccc1-c1cccc(C(C#CCCO)N2CCOCC2)c1 (stereo not shown),none,none,none
Cc1cc(C)n(-c2nc3cc(Cl)ccc3nc2NCc2ccc(C(=O)O)cc2)n1,none,none,-
Cc1nnc(NC2CC2)c2c1nnn2Cc1ccccc1Cl,none,none,-
Cn1cnc2c(F)c(Nc3ccc(Br)cc3F)c(C(=O)NOCCO)cc21,none,none,none
Cl.OC(COCCC12CC3CC(CC(C3)C1)C2)CN1CCc2ccccc2C1 (stereo not shown),none,none,none
c1cc(C2N3CCCN2CC3)ccn1 (stereo not shown),none,none,none
COc1ccc(-c2cc3ccccc3n2CC(O)CNCC2CCCO2)cc1 (stereo not shown),none,none,none
C[C@]12CC[C@@H]3c4ccc(O)cc4CC[C@H]3[C@H]1C[C@@H](O)[C@H]2O,none,none,none
CCOC(=O)c1c(N)sc(C(=O)Nc2cccc(C(F)(F)F)c2)c1C,none,none,none
NCCn1cc(C(=O)N2CCCC(c3[nH]ncc3Cc3ccccc3)C2)nn1 (stereo not shown),none,none,none
COc1ccc(-c2nc3nc(C)cc(N4CCN(CCO)CC4)n3n2)cc1,none,none,-
CC(C)(O)c1cn(-c2nonc2N)nn1,none,none,none
Cc1cc(C(=O)N2CCC3(CCCO3)CC2)cc2sc(N)nc12,none,none,none
CC(C)Oc1cc(NCc2nc3ccccc3c(=O)[nH]2)nc(N)n1,none,none,none
Cc1nnc(NC(=O)CSc2nc(=O)cc(N)n2-c2ccccc2)s1,none,none,none
O=C(NC(CO)c1cc(Cl)cc(Cl)c1)c1ccc2nccn2c1 (stereo not shown),none,none,none
Cc1ccc(Nc2c(-c3ccc(C)cc3)nc3cnccn23)cc1,none,none,none
Cc1ccccc1-n1nc(CO)c(C(=O)NCc2cccnc2)n1,none,none,-
Cc1c(C(C)N)cnn1-c1ccccn1 (stereo not shown),none,none,none
CO[C@H]1CN(C(=O)COc2cccc(C)c2C)CC[C@H]1N,none,none,none
NCCCN1C(=O)CC[C@H]2CN(C(=O)NCCc3ccccc3)CC[C@H]21,none,none,none
O=[N+]([O-])/C=C/c1cc2ccccc2[nH]1,none,none,none
O=C(Cc1cn2ccsc2n1)N1CCC2(CC1)c1ccccc1CC2O (stereo not shown),none,none,none
Nc1cc(C(=O)N2CCOCC2)ccc1Cl,none,none,none
Cc1c(-c2ccccc2)sc(N)c1C#N,none,none,none
O=C(Nc1ccc(Br)cc1)Nc1ccccc1Cl,none,none,none
CCn1nc(C(=O)O)c2c1CCC(NCc1ccc(OC)c(OC)c1)C2 (stereo not shown),none,none,none
CCC(CO)NC(=O)c1c(O)nc2ccccn2c1=O (stereo not shown),none,none,none
Cc1cc(-c2c(-c3ccccc3)ncn2CCO)c(C)n1Cc1cccnc1,none,none,none
N#Cc1nc(-c2ccc(S(=O)(=O)N3CCCCCC3)cc2)oc1NC1CCCCC1,none,none,-
OCc1csc(N2C[C@@H](CN3CCCCCC3)[C@@H](CO)C2)n1,none,none,none
Cc1nnc2c(Nc3ccc(Cl)cc3)nc3nonc3n12,none,none,none
Cc1ccc(S(=O)(=O)n2nc(OC(=O)C3CCCCC3)cc2N)cc1,none,none,none
O=C(CNCc1ccccc1)N1c2ccccc2Sc2ccc(C(F)(F)F)cc21,none,none,none
O=S(=O)(c1ccc(Cl)cc1)N(CCO)CC(O)Cn1c2ccccc2c2ccccc21 (stereo not shown),none,none,none
Cc1nn(CC(O)CN2c3ccccc3Sc3ccccc32)c(C)c1Br (stereo not shown),none,none,none
O=C1CSC(=O)N1CC(O)Cn1c2ccccc2c2ccccc21 (stereo not shown),none,none,none
COc1ccc(C)cc1-n1nnc(-c2nc(-c3ccccn3)no2)c1N,none,none,-
CCn1nc(C)c(NC(=O)CNC(C)c2ccco2)c1C (stereo not shown),none,none,none
C#CCN1C(=O)C2(C(C#N)=C(N)Oc3c2c(=O)n(C)c2ccccc32)c2ccccc21 (stereo not shown),none,none,none
COc1cccc(OCC(O)CNC(=O)CCC(=O)NC2CCCC2)c1 (stereo not shown),none,none,none
CCOC(=O)c1c(N)n(-c2cc(C)ccc2C)c2nc3ccccc3nc12,none,none,none
Fc1ccccc1CCNCc1cccc(Oc2ncccn2)c1,none,none,none
N#Cc1cnn2c(NC3CCCCCCC3)c(-c3cccc(Cl)c3)[nH]c12,none,none,-
C=CCc1c(C)nc(SC)nc1Nc1ccc(C)cc1,none,none,none
OCCOc1cccc(CN2CCCC(Cc3nc4ccccc4[nH]3)C2)c1 (stereo not shown),none,none,none
CC(CCCC(C)(C)O)NC1CCc2ccccc2C1 (stereo not shown),none,none,none
CN1C(=O)N(Cc2nc3ncccn3n2)C(=O)C12CCNCC2,none,none,none
NC(CCCCNC(=O)c1ccccc1)C(=O)O (stereo not shown),none,none,none
NC1CC(=O)N(CCc2ccc(F)cc2)C1 (stereo not shown),none,none,none
O=C1c2ccccc2C(Nc2ccccc2F)N1c1cccnc1 (stereo not shown),none,none,none
CCNc1ncccc1-c1nc(-c2cccc(C)c2)no1,none,none,-